Consider 1 substance from PMC12246392.

Sequences of proteins named here, by UniProt entry; tags and fusion partners are left off.
UniProt P07948: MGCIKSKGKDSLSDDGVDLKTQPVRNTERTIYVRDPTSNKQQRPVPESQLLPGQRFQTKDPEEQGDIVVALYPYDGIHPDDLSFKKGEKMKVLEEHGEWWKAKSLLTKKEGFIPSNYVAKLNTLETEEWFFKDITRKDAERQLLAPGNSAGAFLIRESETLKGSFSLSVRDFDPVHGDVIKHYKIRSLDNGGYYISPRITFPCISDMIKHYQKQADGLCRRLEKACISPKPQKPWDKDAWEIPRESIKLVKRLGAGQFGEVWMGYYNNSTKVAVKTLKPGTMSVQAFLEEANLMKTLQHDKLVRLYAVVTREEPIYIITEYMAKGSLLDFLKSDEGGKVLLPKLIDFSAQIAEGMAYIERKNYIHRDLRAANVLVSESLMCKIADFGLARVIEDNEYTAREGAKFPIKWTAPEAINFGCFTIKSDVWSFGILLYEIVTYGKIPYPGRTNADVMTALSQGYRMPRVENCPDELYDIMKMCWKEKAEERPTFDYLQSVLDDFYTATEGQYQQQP
UniProt Q13568: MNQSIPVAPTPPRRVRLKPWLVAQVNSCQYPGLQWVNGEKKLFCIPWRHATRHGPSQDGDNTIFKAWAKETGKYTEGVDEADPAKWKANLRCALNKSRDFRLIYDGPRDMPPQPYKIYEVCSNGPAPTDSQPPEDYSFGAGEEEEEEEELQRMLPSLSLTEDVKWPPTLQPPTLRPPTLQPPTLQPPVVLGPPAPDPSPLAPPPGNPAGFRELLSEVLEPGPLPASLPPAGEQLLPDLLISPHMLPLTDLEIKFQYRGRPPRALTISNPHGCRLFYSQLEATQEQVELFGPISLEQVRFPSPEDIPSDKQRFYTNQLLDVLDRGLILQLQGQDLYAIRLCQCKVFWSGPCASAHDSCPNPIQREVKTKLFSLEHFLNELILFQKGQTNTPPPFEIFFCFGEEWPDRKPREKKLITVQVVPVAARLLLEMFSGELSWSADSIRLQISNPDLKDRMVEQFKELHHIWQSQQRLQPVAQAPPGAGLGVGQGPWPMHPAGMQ

These are yes or no findings as the source states them, for the method shown. Some entries that bind do so weakly or less than the wild type.

Assay [1] has as its target Recombinant human Lyn, full-length (human) (UniProt P07948). Nature of the assay: far-Western, overlay or dot blot; blot overlay: kinase (bait, 50-200 ng by the legend) spotted on nitrocellulose, blocked with 2% non-fat milk in PBST, overlaid with 100 ng full-length IRF5 for 1 h at RT, detected with an anti-IRF5 antibody; both purified.
Assay [2] addresses T1, Recombinant human IKKβ, full-length (human) (UniProt O14920).
T1 sequence: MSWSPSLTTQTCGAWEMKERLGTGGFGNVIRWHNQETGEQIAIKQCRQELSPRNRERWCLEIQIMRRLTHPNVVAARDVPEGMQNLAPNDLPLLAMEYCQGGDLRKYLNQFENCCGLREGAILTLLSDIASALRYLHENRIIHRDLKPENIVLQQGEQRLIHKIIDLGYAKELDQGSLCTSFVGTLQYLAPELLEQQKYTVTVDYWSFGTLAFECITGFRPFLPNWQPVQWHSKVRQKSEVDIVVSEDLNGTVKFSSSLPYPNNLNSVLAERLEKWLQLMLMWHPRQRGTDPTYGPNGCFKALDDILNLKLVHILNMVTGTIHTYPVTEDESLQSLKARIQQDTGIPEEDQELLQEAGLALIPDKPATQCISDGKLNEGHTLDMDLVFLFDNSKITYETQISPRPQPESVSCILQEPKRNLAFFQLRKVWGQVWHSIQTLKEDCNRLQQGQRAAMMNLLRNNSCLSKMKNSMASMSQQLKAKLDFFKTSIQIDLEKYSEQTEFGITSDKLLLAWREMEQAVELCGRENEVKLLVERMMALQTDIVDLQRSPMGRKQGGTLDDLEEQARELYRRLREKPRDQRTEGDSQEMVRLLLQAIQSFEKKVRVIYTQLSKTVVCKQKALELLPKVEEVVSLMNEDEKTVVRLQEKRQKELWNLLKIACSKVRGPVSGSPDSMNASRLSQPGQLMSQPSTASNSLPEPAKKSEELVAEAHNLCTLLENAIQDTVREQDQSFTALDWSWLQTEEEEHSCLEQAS
Described as above.

For the substance “Recombinant human IRF5 (interferon regulatory factor 5), full-length (from UniProt Q13568 1-498)”, the binding entry in assay [1] and in assay [2] was “binds” throughout.
